This passage reports binding results from paper PMC11214836, “ILF3 safeguards telomeres from aberrant homologous recombination as a telomeric R-loop reader”.

The chains behind the UniProt entries cited, without tags or fusion partners.
UniProt O00571: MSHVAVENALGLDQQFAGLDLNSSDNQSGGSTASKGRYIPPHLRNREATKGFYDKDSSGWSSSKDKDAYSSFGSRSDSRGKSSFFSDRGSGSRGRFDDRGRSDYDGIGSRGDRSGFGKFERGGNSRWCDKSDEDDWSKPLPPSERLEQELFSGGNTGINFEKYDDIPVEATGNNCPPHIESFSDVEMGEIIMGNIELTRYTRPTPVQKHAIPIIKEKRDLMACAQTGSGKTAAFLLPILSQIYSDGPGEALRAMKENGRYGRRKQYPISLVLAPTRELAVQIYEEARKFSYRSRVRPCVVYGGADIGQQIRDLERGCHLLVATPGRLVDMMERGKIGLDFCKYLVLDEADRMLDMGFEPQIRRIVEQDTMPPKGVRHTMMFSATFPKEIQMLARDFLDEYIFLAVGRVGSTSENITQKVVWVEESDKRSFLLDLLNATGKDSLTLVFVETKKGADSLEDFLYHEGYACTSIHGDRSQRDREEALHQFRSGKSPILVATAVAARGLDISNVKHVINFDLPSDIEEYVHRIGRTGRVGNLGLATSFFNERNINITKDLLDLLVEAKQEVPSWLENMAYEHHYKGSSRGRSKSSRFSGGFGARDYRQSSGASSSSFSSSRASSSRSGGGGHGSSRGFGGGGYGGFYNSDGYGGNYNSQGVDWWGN

These are yes or no findings as the source states them, for the method shown. In cells and extracts the contact can be indirect. Here binding means that the protein was enriched with, or labelled near, the bait; the list need not be complete.

This experiment deals with T1, BioID-ILF3 (UniProt Q12906).
T1 sequence: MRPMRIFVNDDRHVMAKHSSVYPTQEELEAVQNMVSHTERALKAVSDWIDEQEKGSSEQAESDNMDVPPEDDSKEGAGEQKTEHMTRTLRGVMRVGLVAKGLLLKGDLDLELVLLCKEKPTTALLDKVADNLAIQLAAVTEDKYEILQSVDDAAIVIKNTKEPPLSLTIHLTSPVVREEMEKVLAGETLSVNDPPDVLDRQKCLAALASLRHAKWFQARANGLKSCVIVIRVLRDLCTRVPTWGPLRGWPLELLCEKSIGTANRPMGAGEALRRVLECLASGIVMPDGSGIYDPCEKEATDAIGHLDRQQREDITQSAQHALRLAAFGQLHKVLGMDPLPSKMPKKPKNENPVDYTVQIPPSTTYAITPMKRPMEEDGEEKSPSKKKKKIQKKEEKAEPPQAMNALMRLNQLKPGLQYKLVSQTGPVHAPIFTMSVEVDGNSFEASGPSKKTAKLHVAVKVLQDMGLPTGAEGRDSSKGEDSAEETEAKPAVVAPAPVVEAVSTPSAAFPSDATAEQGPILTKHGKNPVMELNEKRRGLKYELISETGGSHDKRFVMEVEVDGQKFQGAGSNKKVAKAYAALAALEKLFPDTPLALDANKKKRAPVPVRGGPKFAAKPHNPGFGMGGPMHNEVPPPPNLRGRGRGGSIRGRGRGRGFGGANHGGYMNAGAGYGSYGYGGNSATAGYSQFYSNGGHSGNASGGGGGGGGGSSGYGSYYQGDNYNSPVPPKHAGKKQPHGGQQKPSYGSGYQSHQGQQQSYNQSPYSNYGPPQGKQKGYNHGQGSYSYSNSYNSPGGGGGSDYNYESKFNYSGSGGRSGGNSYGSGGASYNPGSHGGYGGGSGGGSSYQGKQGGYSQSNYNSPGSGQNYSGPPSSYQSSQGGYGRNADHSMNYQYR
The experiment can be described thus: proximity labelling; BioID in U2OS cells stably expressing BioID-ILF3; 50 umol/L biotin for 16 h, RIPA lysis, streptavidin magnetic beads, LC-MS/MS; BioID-NLS as background control.

For the molecule “DDX3X (from UniProt O00571 1-662) (enzyme)”, the binding entry is listed as “binds”.

B1: DHX30 (enzyme, UniProt Q7L2E3 1-1194)
chain: MFSLDSFRKDRAQHRQRQCKLPPPRLPPMCVNPTPGGTISRASRDLLKEFPQPKNLLNSVIGRALGISHAKDKLVYVHTNGPKKKKVTLHIKWPKSVEVEGYGSKKIDAERQAAAAACQLFKGWGLLGPRNELFDAAKYRVLADRFGSPADSWWRPEPTMPPTSWRQLNPESIRPGGPGGLSRSLGREEEEDEEEELEEGTIDVTDFLSMTQQDSHAPLRDSRGSSFEMTDDDSAIRALTQFPLPKNLLAKVIQIATSSSTAKNLMQFHTVGTKTKLSTLTLLWPCPMTFVAKGRRKAEAENKAAALACKKLKSLGLVDRNNEPLTHAMYNLASLRELGETQRRPCTIQVPEPILRKIETFLNHYPVESSWIAPELRLQSDDILPLGKDSGPLSDPITGKPYVPLLEAEEVRLSQSLLELWRRRGPVWQEAPQLPVDPHRDTILNAIEQHPVVVISGDTGCGKTTRIPQLLLERYVTEGRGARCNVIITQPRRISAVSVAQRVSHELGPSLRRNVGFQVRLESKPPSRGGALLFCTVGILLRKLQSNPSLEGVSHVIVDEVHERDVNTDFLLILLKGLQRLNPALRLVLMSATGDNERFSRYFGGCPVIKVPGFMYPVKEHYLEDILAKLGKHQYLHRHRHHESEDECALDLDLVTDLVLHIDARGEPGGILCFLPGWQEIKGVQQRLQEALGMHESKYLILPVHSNIPMMDQKAIFQQPPVGVRKIVLATNIAETSITINDIVHVVDSGLHKEERYDLKTKVSCLETVWVSRANVIQRRGRAGRCQSGFAYHLFPRSRLEKMVPFQVPEILRTPLENLVLQAKIHMPEKTAVEFLSKAVDSPNIKAVDEAVILLQEIGVLDQREYLTTLGQRLAHISTDPRLAKAIVLAAIFRCLHPLLVVVSCLTRDPFSSSLQNRAEVDKVKALLSHDSGSDHLAFVRAVAGWEEVLRWQDRSSRENYLEENLLYAPSLRFIHGLIKQFSENIYEAFLVGKPSDCTLASAQCNEYSEEEELVKGVLMAGLYPNLIQVRQGKVTRQGKFKPNSVTYRTKSGNILLHKSTINREATRLRSRWLTYFMAVKSNGSVFVRDSSQVHPLAVLLLTDGDVHIRDDGRRATISLSDSDLLRLEGDSRTVRLLKELRRALGRMVERSLRSELAALPPSVQEEHGQLLALLAELLRGPCGSFDVRKTADD
Turning to B1, the binding entry was “binds”.
